The text below walks through data of PMC4570271, “Resolution of structure of PIP5K1A reveals molecular mechanism for its regulation by dimerization and dishevelled” (Nature Communications, 2015).

By UniProt entry, the sequences of proteins in these tests, tags left out. Where a name states a change or a piece, a line headed by the entry shows the natural chain unless it says otherwise. Chains listed by the source or under a name are the forms on record and can include a tag or linker.
zebrafish PIP5K1A kinase catalytic domain, triple D84R/L86A/V291A (DLV) mutant (Q503I3, form named): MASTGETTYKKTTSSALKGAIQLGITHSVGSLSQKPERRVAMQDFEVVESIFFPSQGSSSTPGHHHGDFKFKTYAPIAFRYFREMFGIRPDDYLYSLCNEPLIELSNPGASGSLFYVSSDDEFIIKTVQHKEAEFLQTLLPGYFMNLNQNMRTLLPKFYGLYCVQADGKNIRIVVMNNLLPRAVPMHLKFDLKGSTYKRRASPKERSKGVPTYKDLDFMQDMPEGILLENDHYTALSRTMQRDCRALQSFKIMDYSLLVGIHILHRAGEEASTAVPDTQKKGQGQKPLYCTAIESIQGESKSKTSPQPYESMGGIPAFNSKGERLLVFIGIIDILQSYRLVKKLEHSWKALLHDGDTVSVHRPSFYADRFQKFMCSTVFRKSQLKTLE
zebrafish PIP5K1A kinase catalytic domain, R197A mutant (Q503I3, form named): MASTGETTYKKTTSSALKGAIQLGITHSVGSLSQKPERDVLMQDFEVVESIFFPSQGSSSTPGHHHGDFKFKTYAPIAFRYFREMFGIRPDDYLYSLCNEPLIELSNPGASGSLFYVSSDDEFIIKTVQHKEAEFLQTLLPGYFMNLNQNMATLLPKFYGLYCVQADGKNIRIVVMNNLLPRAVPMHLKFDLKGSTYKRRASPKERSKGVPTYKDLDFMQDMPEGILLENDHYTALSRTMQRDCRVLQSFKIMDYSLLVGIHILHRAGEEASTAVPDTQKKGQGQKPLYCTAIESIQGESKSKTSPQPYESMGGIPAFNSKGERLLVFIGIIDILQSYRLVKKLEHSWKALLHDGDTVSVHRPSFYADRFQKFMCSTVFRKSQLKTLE
zebrafish PIP5K1A kinase catalytic domain, K80A mutant (Q503I3, form named): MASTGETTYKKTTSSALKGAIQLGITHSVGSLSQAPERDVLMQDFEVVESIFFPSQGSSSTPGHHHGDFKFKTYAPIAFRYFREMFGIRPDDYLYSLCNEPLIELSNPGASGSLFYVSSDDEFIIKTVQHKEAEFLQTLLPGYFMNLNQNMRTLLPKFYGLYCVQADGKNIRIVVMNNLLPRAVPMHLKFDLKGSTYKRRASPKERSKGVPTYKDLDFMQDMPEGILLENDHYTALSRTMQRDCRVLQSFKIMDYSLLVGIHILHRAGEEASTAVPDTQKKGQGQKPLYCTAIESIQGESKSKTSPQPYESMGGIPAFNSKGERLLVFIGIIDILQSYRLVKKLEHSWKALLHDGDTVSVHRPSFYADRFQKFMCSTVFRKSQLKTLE
zebrafish PIP5K1A kinase catalytic domain, I133A mutant (Q503I3, form named): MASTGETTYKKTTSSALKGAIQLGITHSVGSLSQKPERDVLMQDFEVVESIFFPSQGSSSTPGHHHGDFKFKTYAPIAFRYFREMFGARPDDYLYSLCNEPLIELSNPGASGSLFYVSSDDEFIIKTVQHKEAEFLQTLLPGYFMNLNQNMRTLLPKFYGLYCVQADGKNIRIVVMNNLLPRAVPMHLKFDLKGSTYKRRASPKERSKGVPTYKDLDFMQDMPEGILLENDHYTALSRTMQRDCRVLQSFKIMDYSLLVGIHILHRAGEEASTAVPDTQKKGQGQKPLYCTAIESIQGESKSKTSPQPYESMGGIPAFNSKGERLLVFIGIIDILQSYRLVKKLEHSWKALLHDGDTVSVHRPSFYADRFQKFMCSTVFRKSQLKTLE

Assay [1] deals with zebrafish PIP5K1A kinase catalytic domain, triple D84R/L86A/V291A (DLV) mutant (zebrafish) (UniProt Q503I3). In words: SEC-MALS; Superdex S-200 10/30 HR; 10 mM HEPES (pH 7.3), 300 mM NaCl, 5% glycerol, 0.01% TX-100; 0.5 ml/min; both purified.
The target of assay [2] is T1, GST-tagged DIX domain of mouse DVL1 (residues 1-106) with Y17D (mouse) (UniProt P51141).
T1 sequence: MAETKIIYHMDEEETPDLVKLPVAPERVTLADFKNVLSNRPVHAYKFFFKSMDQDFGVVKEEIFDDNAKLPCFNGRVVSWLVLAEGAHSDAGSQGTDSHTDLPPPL
Nature of the assay: pull-down; GST-DIX (or GST) 0.5 μg and His-tagged PIP5K1 0.5 μg in 200 μl of 10 mM HEPES (pH 7.4), 150 mM NaCl, 0.2% Triton, 0.01% SDS, 3 mM dithiothreitol, 10% glycerol; 4 °C overnight; glutathione beads; western blotting; both purified.

No constants are given. Whether binding was seen depends on the method and setting. Some entries that bind do so weakly or less than the wild type. For some of these results: Sequences can lack the tags named with a protein.

On to “zebrafish PIP5K1A kinase catalytic domain, triple D84R/L86A/V291A (DLV) mutant (from UniProt Q503I3 49-431) (domain or fragment)”, for which the binding result in assay [1] is reported as “no binding”.

For the substance “zebrafish PIP5K1A kinase catalytic domain, R197A mutant (from UniProt Q503I3 49-431) (domain or fragment)”, in assay [2], the binding entry is listed as “binds weakly”.

With “zebrafish PIP5K1A kinase catalytic domain, K80A mutant (from UniProt Q503I3 49-431) (domain or fragment)”, in assay [2], the binding entry is “binds weakly”.

Take “zebrafish PIP5K1A kinase catalytic domain, I133A mutant (from UniProt Q503I3 49-431) (domain or fragment)”: the binding entry in assay [2] was “binds weakly”.
